Experimental data as given in PMC10698284.

Protein sequences, listed by entry. Tags and fused reporters are not part of them. Lines headed by an entry give the natural chain unless they say otherwise; changes in a name come on top. Chains listed by the source or under a name are the forms on record and can include a tag or linker. Residues count along the entry.
FLAG-SLC3A2 WTseq (P08195, residues 66-630): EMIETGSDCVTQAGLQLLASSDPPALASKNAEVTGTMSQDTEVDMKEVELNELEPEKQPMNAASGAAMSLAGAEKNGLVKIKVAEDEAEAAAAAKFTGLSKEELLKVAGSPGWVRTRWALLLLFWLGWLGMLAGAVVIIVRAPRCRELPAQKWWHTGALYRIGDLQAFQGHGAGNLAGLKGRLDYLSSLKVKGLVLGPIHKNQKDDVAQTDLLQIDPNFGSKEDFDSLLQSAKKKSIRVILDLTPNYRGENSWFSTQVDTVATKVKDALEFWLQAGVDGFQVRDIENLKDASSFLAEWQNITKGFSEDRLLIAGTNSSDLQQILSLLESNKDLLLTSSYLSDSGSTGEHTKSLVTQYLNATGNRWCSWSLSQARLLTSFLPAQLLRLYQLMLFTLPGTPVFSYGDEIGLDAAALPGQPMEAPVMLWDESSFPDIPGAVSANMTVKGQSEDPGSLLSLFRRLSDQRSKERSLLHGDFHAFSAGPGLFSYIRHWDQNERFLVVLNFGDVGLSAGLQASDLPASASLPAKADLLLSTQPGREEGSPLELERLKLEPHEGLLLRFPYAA
FLAG-SLC3A2 A273N + D355N (P08195, form named): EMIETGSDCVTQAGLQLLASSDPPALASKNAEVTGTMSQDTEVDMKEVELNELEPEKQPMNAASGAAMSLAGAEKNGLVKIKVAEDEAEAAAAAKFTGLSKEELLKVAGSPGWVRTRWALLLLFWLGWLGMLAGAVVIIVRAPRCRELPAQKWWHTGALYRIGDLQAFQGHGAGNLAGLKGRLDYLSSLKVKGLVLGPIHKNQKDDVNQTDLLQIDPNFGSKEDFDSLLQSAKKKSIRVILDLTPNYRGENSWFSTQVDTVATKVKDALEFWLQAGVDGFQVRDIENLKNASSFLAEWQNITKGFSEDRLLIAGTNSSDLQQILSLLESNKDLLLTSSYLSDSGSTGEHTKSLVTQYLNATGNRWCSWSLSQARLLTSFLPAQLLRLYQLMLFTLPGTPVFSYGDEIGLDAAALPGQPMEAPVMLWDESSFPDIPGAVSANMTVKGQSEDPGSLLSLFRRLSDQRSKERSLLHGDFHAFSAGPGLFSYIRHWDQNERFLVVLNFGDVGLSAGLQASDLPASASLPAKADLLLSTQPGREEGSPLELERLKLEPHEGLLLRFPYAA
FLAG-SLC3A2 A273N (P08195, form named): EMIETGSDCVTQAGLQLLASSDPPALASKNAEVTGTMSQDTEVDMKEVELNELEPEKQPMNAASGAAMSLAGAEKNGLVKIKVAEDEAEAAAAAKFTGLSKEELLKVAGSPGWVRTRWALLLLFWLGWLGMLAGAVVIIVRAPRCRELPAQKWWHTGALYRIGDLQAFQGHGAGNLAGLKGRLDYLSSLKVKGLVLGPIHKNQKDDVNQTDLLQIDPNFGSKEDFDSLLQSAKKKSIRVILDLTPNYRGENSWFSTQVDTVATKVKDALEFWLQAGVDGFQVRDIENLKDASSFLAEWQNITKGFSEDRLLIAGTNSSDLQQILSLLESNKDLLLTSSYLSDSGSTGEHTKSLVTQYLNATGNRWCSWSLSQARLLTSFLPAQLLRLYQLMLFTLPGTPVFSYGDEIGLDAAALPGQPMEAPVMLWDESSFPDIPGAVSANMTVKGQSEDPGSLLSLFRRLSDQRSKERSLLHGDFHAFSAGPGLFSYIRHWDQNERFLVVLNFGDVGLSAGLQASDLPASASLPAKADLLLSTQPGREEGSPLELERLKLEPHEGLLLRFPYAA

Experiments:
Experiment in all cases: affinity purification with mass spectrometry; anti-FLAG M2 agarose, 4 h at 4 °C, 1 mg lysate (0.5% NP40, 50 mM HEPES pH 8.0, 100 mM KCl, 1 mM EDTA, 10% glycerol) of HeLa Flp-In T-REx SLC3A2 KO cells with dox-induced FLAG-SLC3A2 WTseq or site variants; on-bead trypsin digest, DDA and SWATH; control: dox-treated SLC3A2 KO cells; in some samples 10 μM fluvastatin or 250 ng/ml swainsonine for the final 24 h
[1] = molecular target: FLAG-SLC3A2 WTseq (human) (UniProt P08195)
[2] = molecular target: FLAG-SLC3A2 A273N + D355N (human) (UniProt P08195)
[3] = molecular target: FLAG-SLC3A2 A273N (human) (UniProt P08195)

Row | binding [1] | binding [2] | binding [3] | Binder
1 | binds | binds | binds | Zn++ transporter SLC30A1 (protein, UniProt Q9Y6M5 1-507) MGCWGRNRGRLLCMLALTFMFMVLEVVVSRVTSSLAMLSDSFHMLSDVLALVVALVAERFARRTHATQKNTFGWIRAEVMGALVNAIFLTGLCFAILLEAIERFIEPHEMQQPLVVLGVGVAGLLVNVLGLCLFHHHSGFSQDSGHGHSHGGHGHGHGLPKGPRVKSTRPGSSDINVAPGEQGPDQEETNTLVANTSNSNGLKLDPADPENPRSGDTVEVQVNGNLVREPDHMELEEDRAGQLNMRGVFLHVLGDALGSVIVVVNALVFYFSWKGCSEGDFCVNPCFPDPCKAFVEIINSTHASVYEAGPCWVLYLDPTLCVVMVCILLYTTYPLLKESALILLQTVPKQIDIRNLIKELRNVEGVEEVHELHVWQLAGSRIIATAHIKCEDPTSYMEVAKTIKDVFHNHGIHATTIQPEFASVGSKSSVVPCELACRTQCALKQCCGTLPQAPSGKDAEKTPAVSISCLELSNNLEKKPRRTKAENIPAVVIEIKNMPNKQPESSL
2 | binds | binds | binds | SLC1A4 (protein, UniProt P43007 1-532) MEKSNETNGYLDSAQAGPAAGPGAPGTAAGRARRCAGFLRRQALVLLTVSGVLAGAGLGAALRGLSLSRTQVTYLAFPGEMLLRMLRMIILPLVVCSLVSGAASLDASCLGRLGGIAVAYFGLTTLSASALAVALAFIIKPGSGAQTLQSSDLGLEDSGPPPVPKETVDSFLDLARNLFPSNLVVAAFRTYATDYKVVTQNSSSGNVTHEKIPIGTEIEGMNILGLVLFALVLGVALKKLGSEGEDLIRFFNSLNEATMVLVSWIMWYVPVGIMFLVGSKIVEMKDIIVLVTSLGKYIFASILGHVIHGGIVLPLIYFVFTRKNPFRFLLGLLAPFATAFATCSSSATLPSMMKCIEENNGVDKRISRFILPIGATVNMDGAAIFQCVAAVFIAQLNNVELNAGQIFTILVTATASSVGAAGVPAGGVLTIAIILEAIGLPTHDLPLILAVDWIVDRTTTVVNVEGDALGAGILHHLNQKATKKGEQELAEVKVEAIPNCKSEEETSPLVTHQNPAGPVASAPELESKESVL
3 | binds | binds | binds | SLC39A1 (protein, UniProt Q9NY26 1-324) MGPWGEPELLVWRPEAVASEPPVPVGLEVKLGALVLLLVLTLLCSLVPICVLRRPGANHEGSASRQKALSLVSCFAGGVFLATCLLDLLPDYLAAIDEALAALHVTLQFPLQEFILAMGFFLVLVMEQITLAYKEQSGPSPLEETRALLGTVNGGPQHWHDGPGVPQASGAPATPSALRACVLVFSLALHSVFEGLAVGLQRDRARAMELCLALLLHKGILAVSLSLRLLQSHLRAQVVAGCGILFSCMTPLGIGLGAALAESAGPLHQLAQSVLEGMAAGTFLYITFLEILPQELASSEQRILKVILLLAGFALLTGLLFIQI
4 | binds | binds | binds | SLC38A1 (protein, UniProt Q9H2H9 1-487) MMHFKSGLELTELQNMTVPEDDNISNDSNDFTEVENGQINSKFISDRESRRSLTNSHLEKKKCDEYIPGTTSLGMSVFNLSNAIMGSGILGLAFALANTGILLFLVLLTSVTLLSIYSINLLLICSKETGCMVYEKLGEQVFGTTGKFVIFGATSLQNTGAMLSYLFIVKNELPSAIKFLMGKEETFSAWYVDGRVLVVIVTFGIILPLCLLKNLGYLGYTSGFSLSCMVFFLIVVIYKKFQIPCIVPELNSTISANSTNADTCTPKYVTFNSKTVYALPTIAFAFVCHPSVLPIYSELKDRSQKKMQMVSNISFFAMFVMYFLTAIFGYLTFYDNVQSDLLHKYQSKDDILILTVRLAVIVAVILTVPVLFFTVRSSLFELAKKTKFNLCRHTVVTCILLVVINLLVIFIPSMKDIFGVVGVTSANMLIFILPSSLYLKITDQDGDKGTQRIWAALFLGLGVLFSLVSIPLVIYDWACSSSSDEGH
5 | binds | binds | binds | SLC38A2 (protein, UniProt Q96QD8 1-506) MKKAEMGRFSISPDEDSSSYSSNSDFNYSYPTKQAALKSHYADVDPENQNFLLESNLGKKKYETEFHPGTTSFGMSVFNLSNAIVGSGILGLSYAMANTGIALFIILLTFVSIFSLYSVHLLLKTANEGGSLLYEQLGYKAFGLVGKLAASGSITMQNIGAMSSYLFIVKYELPLVIQALTNIEDKTGLWYLNGNYLVLLVSLVVILPLSLFRNLGYLGYTSGLSLLCMVFFLIVVICKKFQVPCPVEAALIINETINTTLTQPTALVPALSHNVTENDSCRPHYFIFNSQTVYAVPILIFSFVCHPAVLPIYEELKDRSRRRMMNVSKISFFAMFLMYLLAALFGYLTFYEHVESELLHTYSSILGTDILLLIVRLAVLMAVTLTVPVVIFPIRSSVTHLLCASKDFSWWRHSLITVSILAFTNLLVIFVPTIRDIFGFIGASAASMLIFILPSAFYIKLVKKEPMKSVQKIGALFFLLSGVLVMTGSMALIVLDWVHNAPGGGH

Results are given in words; binding and its absence hold for the method and conditions named. In cells and extracts the contact can be indirect. These calls come from enrichment with a bait or labelling near it, and not all partners need be listed.
